Experimental data from patent publication US9788547B2, “Aromatic compound and uses thereof” (SUMITOMO CHEMICAL COMPANY, LIMITED, priority 2014, dated 2017).
Some of these results come from one statement about several compounds together.

Experiments:
[1] = test system: soybean rust fungus (Phakopsora pachyrhizi); test: Test Example 7: soybean rust control, foliar spray on soybean; format: in vivo; conditions: 200 ppm, soybean (KUROSENGOKU), inoculated 2 days after spraying
[2] = test system: barley scald fungus (Rhynchosporiumsecalis); test: Test Example 8: barley scald control, foliar spray on barley; format: in vivo, Rhynchosporium secalis; conditions: 200 ppm, barley (NISHINOHOSHI), inoculated 2 days after spraying
[3] = test system: cucumber anthracnose fungus (Colletotrichum lagenarium); test: Test Example 10: cucumber anthracnose control, foliar spray on cucumber; format: in vivo; conditions: 200 ppm, cucumber (SAGAMI HANJIRO), inoculated one day after spraying
[4] = test system: cucumber target leaf spot fungus (Corynespora cassiicola); test: Test Example 9: cucumber target leaf spot control, foliar spray on cucumber; format: in vivo; conditions: 200 ppm, cucumber (SAGAMI HANJIRO), inoculated one day after spraying
[5] = test system: cotton aphid (Aphis gossypii); test: Test Example 11: cotton aphid control on cucumber leaves, spray; format: in vivo; conditions: 500 ppm active ingredient (formulation per Formulation Example 2), 20 mL sprayed, surviving insects counted after 6 days
[6] = test system: wheat leaf blotch fungus (Septoria tritici); test: Test Example 5: wheat leaf blotch control, foliar spray on wheat; format: in vivo; conditions: 200 ppm, wheat (APOGEE), inoculated 4 days after spraying
[7] = test system: kidney bean stem rot fungus (Sclerotinia sclerotiorum); test: Test Example 4: kidney bean stem rot control, foliar spray on kidney bean; conditions: 500 ppm, kidney bean (NAGAUZURA SAITOU), four days after the inoculation
[8] = test system: barley net blotch fungus (Pyrenophora teres); test: Test Example 3: barley net blotch control, foliar spray on barley; format: in vivo; conditions: 500 ppm, barley (NISHINOHOSHI), inoculated 2 days after spraying

SMILES | area of lesion on treated plant relative to that on an untreated plant [1] [%] | area of lesion on treated plant relative to that on an untreated plant [2] [%] | area of lesion on treated plant relative to that on an untreated plant [3] [%] | area of lesion on treated plant relative to that on an untreated plant [4] [%] | control value [5] [%] | area of lesion on treated plant relative to that on an untreated plant [6] [%] | area of lesion on treated plant relative to that on an untreated plant [7] [%] | area of lesion on treated plant relative to that on an untreated plant [8] [%]
COC(=O)Nc1ccccc1COc1ccc(-c2nn(C)c(OC)c2C)cc1C [Present Compound 1] | ≤ 30 | ≤ 30 | ≤ 30 | ≤ 30 |  |  |  | 
COC(=O)Nc1ccccc1COc1ccc(-c2nn(C)c(OC)c2Cl)cc1C [Present Compound 2] | ≤ 30 | ≤ 30 | ≤ 30 |  | ≥ 90 | ≤ 30 | ≤ 30 | 
COC(=O)Nc1ccccc1COc1ccc(-c2nn(C)c(Cl)c2C)cc1C [Present Compound 3] | ≤ 30 | ≤ 30 |  |  |  | ≤ 30 | ≤ 30 | ≤ 30
COC(=O)Nc1cccc(C)c1COc1ccc(-c2nn(C)c(Cl)c2C)cc1C [Present Compound 4] | ≤ 30 | ≤ 30 |  |  | ≥ 90 | ≤ 30 | ≤ 30 | 
COC(=O)N(O)c1cccc(C)c1COc1ccc(-c2nn(C)c(Cl)c2C)cc1C [Present Compound 5] | ≤ 30 | ≤ 30 | ≤ 30 |  |  |  |  | 
CCC(=O)Nc1cccc(C)c1COc1ccc(-c2nn(C)c(Cl)c2C)cc1C [Present Compound 6] | ≤ 30 | ≤ 30 | ≤ 30 |  |  |  | ≤ 30 | ≤ 30
Cc1cc(-c2nn(C)c(Cl)c2C)ccc1OCc1c(C)cccc1NC(=O)C(F)F [Present Compound 8] |  | ≤ 30 |  |  |  |  |  | ≤ 30
COC(=O)N(C)c1cccc(C)c1COc1ccc(-c2nn(C)c(Cl)c2C)cc1C [Present Compound 9] | ≤ 30 | ≤ 30 | ≤ 30 |  | ≥ 90 |  | ≤ 30 | 
Cc1cc(-c2nn(C)c(Cl)c2C)ccc1OCc1c(C)cccc1NC(=O)N(C)C [Present Compound 10] |  |  |  |  |  |  | ≤ 30 | ≤ 30
COC(=O)Nc1cccc(C)c1COc1ccc(-c2nn(C)c(F)c2C)cc1C [Present Compound 11] |  |  | ≤ 30 | ≤ 30 |  |  |  | 
CNC(=O)C(=O)c1ccccc1COc1ccc(-c2nn(C)c(Cl)c2C)cc1C [Present Compound 12] | ≤ 30 | ≤ 30 | ≤ 30 |  |  |  |  | 
CNC(=O)C(O)c1ccccc1COc1ccc(-c2nn(C)c(Cl)c2C)cc1C (centres unmarked) [Present Compound 13] | ≤ 30 | ≤ 30 | ≤ 30 |  |  |  | ≤ 30 | ≤ 30
COC(=O)Nc1c(Br)cccc1COc1ccc(-c2nn(C)c(F)c2C)cc1C [Present Compound 25] | ≤ 30 | ≤ 30 | ≤ 30 |  |  |  |  | 
CCc1cccc(COc2ccc(-c3nn(C)c(Cl)c3C)cc2C)c1NC(=O)OC [Present Compound 39] | ≤ 30 | ≤ 30 | ≤ 30 |  |  |  |  | 
CCc1cccc(NC(=O)OC)c1COc1ccc(-c2nn(C)c(Cl)c2C)cc1C [Present Compound 40] | ≤ 30 | ≤ 30 | ≤ 30 |  |  |  |  | 
CCOC(=O)Nc1cccc(C)c1COc1ccc(-c2nn(C)c(Cl)c2C)cc1C [Present Compound 42] |  | ≤ 30 | ≤ 30 |  |  | ≤ 30 |  | ≤ 30
CSC(=O)Nc1cccc(C)c1COc1ccc(-c2nn(C)c(F)c2C)cc1C [Present Compound 44] | ≤ 30 | ≤ 30 | ≤ 30 |  |  |  | ≤ 30 | ≤ 30
